Results deposited as PubChem BioAssay AID1259405 (NCATS, 2018).

Test: 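Silenced genes that increase secreted GFP made by CHO cells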 (primary screen)
Cells: Chinese hamster CHO-K1 ovary cells with stable secreted eGFP expression
Knock-down reagent: single siRNA against mouse genes, 0.8 pmol siRNA per well (2 µl of 400 nM stock)
Duration: 3 days
Measurement: 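Percent of the per-plate non-targeting control median for intracellular GFP per well by laser scanning cytometry and for cell viability by ATP luminescence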
Scale: GFP, % of control: higher = more GFP per well, higher productivity; viability (ATP), % of control: higher = more viable cells (more ATP)
Hit rule: 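a knock-down is called active if GFP reaches 120% or more of non-targeting control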
The deposit covers about 50,000 reagents; below is an unselected part. About 4,000 of them (8%) were called active. 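Mouse siRNA library applied to hamster cells; one well for each siRNA.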 Unmarked entries are inactive. The numbers tell different reagents against one gene apart.

target	siRNA no.	GFP, % of control	viability (ATP), % of control
Tnfrsf12a (tumor necrosis factor receptor superfamily, member 12a)	1	125 (active)	55.2
Tnfrsf12a (tumor necrosis factor receptor superfamily, member 12a)	2	74.5	123
Tnfrsf12a (tumor necrosis factor receptor superfamily, member 12a)	3	110	99.6
Or7e173 (olfactory receptor family 7 subfamily E member 173)	1	114	82.4
Or7e173 (olfactory receptor family 7 subfamily E member 173)	2	55.7	56.5
Or7e173 (olfactory receptor family 7 subfamily E member 173)	3	95.9	127
Zfp87 (zinc finger protein 87)	1	77.7	70.8
Zfp87 (zinc finger protein 87)	2	84.9	98.9
Zfp87 (zinc finger protein 87)	3	88.7	71.2
Krtap6-2 (keratin associated protein 6-2)	1	38.3	63
Krtap6-2 (keratin associated protein 6-2)	2	84.5	86.7
Krtap6-2 (keratin associated protein 6-2)	3	70.8	50.8
BC048679 (cDNA sequence BC048679)	1	67.8	78.5
BC048679 (cDNA sequence BC048679)	2	80.4	76.2
BC048679 (cDNA sequence BC048679)	3	108	111
Wnt5a (WNT family member 5A)	1	44.8	35.5
Wnt5a (WNT family member 5A)	2	107	58.3
Wnt5a (WNT family member 5A)	3	84.2	45.1
Htatip2 (HIV-1 Tat interactive protein 2)	1	57.1	69.4
Htatip2 (HIV-1 Tat interactive protein 2)	2	44.9	50.5
Htatip2 (HIV-1 Tat interactive protein 2)	3	66.9	73.9
Gemin7 (gem nuclear organelle associated protein 7)	1	70.5	63.3
Gemin7 (gem nuclear organelle associated protein 7)	2	31.6	45.8
Gemin7 (gem nuclear organelle associated protein 7)	3	64.5	70.5
Tas2r125 (taste receptor, type 2, member 125)	1	18.3	32.2
Tas2r125 (taste receptor, type 2, member 125)	2	65.2	65.9
Tas2r125 (taste receptor, type 2, member 125)	3	94.5	71.5
Dpt (dermatopontin)	1	57.1	96.1
Dpt (dermatopontin)	2	48.9	81
Tmem234 (transmembrane protein 234)	1	131 (active)	80.1
Tmem234 (transmembrane protein 234)	2	86.2	91
Tmem234 (transmembrane protein 234)	3	56.7	47.3
Gsdma3 (gasdermin A3)	1	50.1	65.3
Gsdma3 (gasdermin A3)	2	98.4	74.3
Gsdma3 (gasdermin A3)	3	37.7	79
Or5p57 (olfactory receptor family 5 subfamily P member 57)	1	83.2	52
Or5p57 (olfactory receptor family 5 subfamily P member 57)	2	75.6	80.1
Or5p57 (olfactory receptor family 5 subfamily P member 57)	3	45.9	42.4
Mapk1ip1 (mitogen-activated protein kinase 1 interacting protein 1)	1	85.2	85.7
Mapk1ip1 (mitogen-activated protein kinase 1 interacting protein 1)	2	49.8	36.3
Mapk1ip1 (mitogen-activated protein kinase 1 interacting protein 1)	3	54.1	52.1
Ube2h (ubiquitin-conjugating enzyme E2H)	1	99.3	76.6
Ube2h (ubiquitin-conjugating enzyme E2H)	2	83.7	78.3
Ube2h (ubiquitin-conjugating enzyme E2H)	3	59	69.8
Mmp16 (matrix metallopeptidase 16)	1	91.4	91.7
Mmp16 (matrix metallopeptidase 16)	2	60.8	58.1
Mnd1 (meiotic nuclear divisions 1)	1	68.3	79
Mnd1 (meiotic nuclear divisions 1)	2	70.2	58.3
Mnd1 (meiotic nuclear divisions 1)	3	82.2	73.9
Gpsm3 (G-protein signalling modulator 3 (AGS3-like, C. elegans))	1	33.7	71
Gpsm3 (G-protein signalling modulator 3 (AGS3-like, C. elegans))	2	91.8	99
Gpsm3 (G-protein signalling modulator 3 (AGS3-like, C. elegans))	3	76.9	55

Continued, starting with the last 7 of the part before.
target	siRNA no.	GFP, % of control	viability (ATP), % of control
Mmp16 (matrix metallopeptidase 16)	2	60.8	58.1
Mnd1 (meiotic nuclear divisions 1)	1	68.3	79
Mnd1 (meiotic nuclear divisions 1)	2	70.2	58.3
Mnd1 (meiotic nuclear divisions 1)	3	82.2	73.9
Gpsm3 (G-protein signalling modulator 3 (AGS3-like, C. elegans))	1	33.7	71
Gpsm3 (G-protein signalling modulator 3 (AGS3-like, C. elegans))	2	91.8	99
Gpsm3 (G-protein signalling modulator 3 (AGS3-like, C. elegans))	3	76.9	55
Cnn1 (calponin 1)	1	138 (active)	117
Cnn1 (calponin 1)	2	88.9	69.4
Cnn1 (calponin 1)	3	84.7	75.3
Nod1 (nucleotide-binding oligomerization domain containing 1)	1	89.4	147
Nod1 (nucleotide-binding oligomerization domain containing 1)	2	102	77
Myof (myoferlin)	1	34.7	28.8
Myof (myoferlin)	2	9.41	11.5
Myof (myoferlin)	3	79.1	51.1
Rad18 (RAD18 E3 ubiquitin protein ligase)	1	42	31.1
Rad18 (RAD18 E3 ubiquitin protein ligase)	2	114	90
Rad18 (RAD18 E3 ubiquitin protein ligase)	3	89.6	98
Lamb2 (laminin, beta 2)	1	99.4	131
Lamb2 (laminin, beta 2)	2	86.7	98.7
Syn1 (synapsin I)	1	23.2	69.7
Syn1 (synapsin I)	2	101	103
Elac1 (elaC ribonuclease Z 1)	1	108	106
Elac1 (elaC ribonuclease Z 1)	2	100	92.1
Elac1 (elaC ribonuclease Z 1)	3	103	127
Ear6 (eosinophil-associated, ribonuclease A family, member 6)	1	73.1	48
Ear6 (eosinophil-associated, ribonuclease A family, member 6)	2	69.3	91.4
Ear6 (eosinophil-associated, ribonuclease A family, member 6)	3	56.2	61.9
Ddx59 (DEAD box helicase 59)	1	126 (active)	68
Ddx59 (DEAD box helicase 59)	2	111	84.6
Ddx59 (DEAD box helicase 59)	3	53.4	43.9
Fbf1 (Fas binding factor 1)	1	66.7	68.8
Fbf1 (Fas binding factor 1)	2	93	85.6
Fbf1 (Fas binding factor 1)	3	92.3	65.2
Iars2 (isoleucine-tRNA synthetase 2, mitochondrial)	1	77.4	78.1
Iars2 (isoleucine-tRNA synthetase 2, mitochondrial)	2	119	64.7
Zfp871 (zinc finger protein 871)	1	87.2	74.8
Zfp871 (zinc finger protein 871)	2	55.5	56.6
Zfp871 (zinc finger protein 871)	3	96.7	93.9
